Two sequences from publication PMC10435448 can be followed below.

By UniProt entry, the sequences of proteins in these tests, tags left out.
UniProt Q06609, whole entry: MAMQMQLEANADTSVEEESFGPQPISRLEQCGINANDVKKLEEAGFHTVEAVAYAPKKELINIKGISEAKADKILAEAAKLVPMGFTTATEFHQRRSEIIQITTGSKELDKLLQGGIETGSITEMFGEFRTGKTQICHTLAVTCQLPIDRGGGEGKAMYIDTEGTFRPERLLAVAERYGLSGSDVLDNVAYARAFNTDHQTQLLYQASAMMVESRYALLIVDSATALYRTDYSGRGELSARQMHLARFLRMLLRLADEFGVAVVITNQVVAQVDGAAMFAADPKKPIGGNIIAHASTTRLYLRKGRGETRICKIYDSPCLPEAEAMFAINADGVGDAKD
UniProt Q06609, whole entry R130A/R303A/K313A: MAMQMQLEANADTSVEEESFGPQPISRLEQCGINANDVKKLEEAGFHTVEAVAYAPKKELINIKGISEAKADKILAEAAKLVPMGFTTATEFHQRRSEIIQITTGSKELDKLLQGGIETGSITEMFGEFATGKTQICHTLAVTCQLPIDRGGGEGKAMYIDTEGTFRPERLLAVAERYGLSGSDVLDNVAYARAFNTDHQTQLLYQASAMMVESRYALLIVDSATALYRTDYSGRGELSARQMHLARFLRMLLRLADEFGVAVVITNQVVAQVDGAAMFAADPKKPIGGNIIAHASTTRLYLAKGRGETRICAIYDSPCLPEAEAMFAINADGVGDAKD

Data set [1] deals with hRAD51 wild-type (Homo sapiens) (UniProt Q06609). Kind of data set: EMSA. As to conditions: 2 mM ADP, 10 mM MgCl2, 0.5-6 uM protein, 3 uM nt DNA, EMSA: 35 mM Tris-HCl pH 7.5, 1 mM DTT, 10 mM MgCl2, 100 ng/ul BSA, 50 mM KCl, 37 C 10 min, 2% agarose TAE at 4 C, recombinant protein, single-stranded DNA.
Data set [2] has as its target hRAD51-II3A R130A,R303A,K313A (Homo sapiens) (UniProt Q06609). Kind of data set: EMSA. As to conditions: 2 mM ADP, 10 mM MgCl2, 0.5-6 uM protein, smeared complex, EMSA: 35 mM Tris-HCl pH 7.5, 1 mM DTT, 10 mM MgCl2, 100 ng/ul BSA, 50 mM KCl, 37 C 10 min, 2% agarose TAE at 4 C, recombinant protein, single-stranded DNA. On the technique in general: A gel shift assay detects complexes by their altered migration in electrophoresis.

The target of data set [3] is hRAD51 wild-type (Homo sapiens) (UniProt Q06609). The data set can be described thus: cryo-EM ATP chase. As to conditions: ADP filament chased with 10 mM ATP, single-filaments 42.5%, well-defined ssDNA density; cryo-EM: 35 mM Tris-HCl pH 7.5, 108 mM KCl, 1 mM DTT, 1 mM ADP, 5 mM CaCl2, 2.5 mM MgCl2, 37 C 30 min; recombinant protein; single-stranded DNA.
Data set [4] has as its target hRAD51-II3A R130A,R303A,K313A (Homo sapiens) (UniProt Q06609). The data set can be described thus: cryo-EM (2D classification). As to conditions: ADP, shorter, more heterogeneous double-filaments; cryo-EM: 35 mM Tris-HCl pH 7.5, 108 mM KCl, 1 mM DTT, 1 mM ADP, 5 mM CaCl2, 2.5 mM MgCl2, 37 C 30 min; recombinant protein; single-stranded DNA.

For at least one entry, the source does not settle the construct or the ends of the probe. For some of these results: The comparison behind a weaker result is the experiment's own reference, which may not be listed here. For some of these results: At least one verdict rests on a figure or table, not on a statement of the authors.

Turning to “TTATGTTCATTTTTTATATCCTTTACTTTATTTTCTCTGTTTATTCATTTACTTATTTTGTATTATCCTTATCTTATTTA [Oligo 1 (80 nt ssDNA), Cy5-labeled]”, the values for the binding result in data set [1] and in data set [2] were “binds” and “binds more weakly”, respectively.

Turning to “TTATGTTCATTTTTTATATCCTTTACTTTATTTTCTCTGTTTATTCATTTACTTATTTTGTATTATCCTTATCTTATTTA [Oligo 1 (80 nt ssDNA), unlabeled]”, the binding result in data set [3] and in data set [4] was “binds” throughout.
